# Data reported in the supplement of paper PMC12823440, “Inhibitors supercharge kinase turnover through native proteolytic circuits” (Nature, 2025).
# Sequences of proteins named here, by UniProt entry; tags and fusion partners are left off. A change or cut given only in a name is not applied to a line headed by its entry.
# UniProt O75460: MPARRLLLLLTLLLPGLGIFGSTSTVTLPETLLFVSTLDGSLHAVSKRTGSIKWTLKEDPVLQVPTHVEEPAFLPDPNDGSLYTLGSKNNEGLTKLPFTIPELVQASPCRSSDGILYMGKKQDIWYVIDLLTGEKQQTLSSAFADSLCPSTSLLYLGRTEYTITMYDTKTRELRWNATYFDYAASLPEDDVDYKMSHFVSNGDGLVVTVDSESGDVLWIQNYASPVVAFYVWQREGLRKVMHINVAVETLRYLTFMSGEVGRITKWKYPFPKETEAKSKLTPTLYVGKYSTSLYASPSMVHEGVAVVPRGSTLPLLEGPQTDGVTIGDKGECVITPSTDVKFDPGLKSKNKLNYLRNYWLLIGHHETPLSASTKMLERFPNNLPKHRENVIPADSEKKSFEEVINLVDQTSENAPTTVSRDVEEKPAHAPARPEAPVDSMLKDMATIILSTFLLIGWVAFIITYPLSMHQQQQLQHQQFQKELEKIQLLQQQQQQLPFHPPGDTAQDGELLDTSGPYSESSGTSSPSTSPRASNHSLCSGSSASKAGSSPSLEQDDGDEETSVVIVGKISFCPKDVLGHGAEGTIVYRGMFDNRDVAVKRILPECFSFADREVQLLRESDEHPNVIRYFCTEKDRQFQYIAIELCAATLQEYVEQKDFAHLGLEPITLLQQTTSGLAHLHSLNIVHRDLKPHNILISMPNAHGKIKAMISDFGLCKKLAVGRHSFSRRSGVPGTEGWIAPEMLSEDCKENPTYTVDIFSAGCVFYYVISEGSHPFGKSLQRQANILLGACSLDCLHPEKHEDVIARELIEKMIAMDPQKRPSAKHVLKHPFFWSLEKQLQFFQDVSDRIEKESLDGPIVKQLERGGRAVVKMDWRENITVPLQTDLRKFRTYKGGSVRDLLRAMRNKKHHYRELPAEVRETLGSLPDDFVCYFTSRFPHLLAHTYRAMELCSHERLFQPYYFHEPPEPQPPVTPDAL
# UniProt P11362, whole entry, looked up: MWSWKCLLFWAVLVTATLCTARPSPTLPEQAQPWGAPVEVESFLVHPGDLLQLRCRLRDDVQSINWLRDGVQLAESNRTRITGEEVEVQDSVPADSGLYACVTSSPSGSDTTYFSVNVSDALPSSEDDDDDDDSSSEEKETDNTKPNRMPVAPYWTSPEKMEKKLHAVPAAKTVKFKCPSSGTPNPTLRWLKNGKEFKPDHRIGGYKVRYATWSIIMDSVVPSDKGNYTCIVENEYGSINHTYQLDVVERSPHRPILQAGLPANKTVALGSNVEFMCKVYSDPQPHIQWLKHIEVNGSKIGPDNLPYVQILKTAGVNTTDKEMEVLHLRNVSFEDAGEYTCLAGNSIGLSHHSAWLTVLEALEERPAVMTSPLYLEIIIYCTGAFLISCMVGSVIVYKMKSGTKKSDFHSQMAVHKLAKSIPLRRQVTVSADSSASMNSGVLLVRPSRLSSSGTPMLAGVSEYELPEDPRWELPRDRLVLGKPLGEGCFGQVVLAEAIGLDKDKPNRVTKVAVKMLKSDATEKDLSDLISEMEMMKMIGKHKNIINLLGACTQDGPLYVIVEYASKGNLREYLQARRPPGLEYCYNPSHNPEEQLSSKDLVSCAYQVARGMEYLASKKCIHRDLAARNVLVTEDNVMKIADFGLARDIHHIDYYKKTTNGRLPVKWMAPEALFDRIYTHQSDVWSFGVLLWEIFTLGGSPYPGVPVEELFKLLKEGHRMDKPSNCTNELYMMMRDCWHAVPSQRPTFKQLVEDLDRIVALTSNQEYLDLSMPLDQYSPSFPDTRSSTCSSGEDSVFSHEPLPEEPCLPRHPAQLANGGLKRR
# UniProt P22607, whole entry, looked up: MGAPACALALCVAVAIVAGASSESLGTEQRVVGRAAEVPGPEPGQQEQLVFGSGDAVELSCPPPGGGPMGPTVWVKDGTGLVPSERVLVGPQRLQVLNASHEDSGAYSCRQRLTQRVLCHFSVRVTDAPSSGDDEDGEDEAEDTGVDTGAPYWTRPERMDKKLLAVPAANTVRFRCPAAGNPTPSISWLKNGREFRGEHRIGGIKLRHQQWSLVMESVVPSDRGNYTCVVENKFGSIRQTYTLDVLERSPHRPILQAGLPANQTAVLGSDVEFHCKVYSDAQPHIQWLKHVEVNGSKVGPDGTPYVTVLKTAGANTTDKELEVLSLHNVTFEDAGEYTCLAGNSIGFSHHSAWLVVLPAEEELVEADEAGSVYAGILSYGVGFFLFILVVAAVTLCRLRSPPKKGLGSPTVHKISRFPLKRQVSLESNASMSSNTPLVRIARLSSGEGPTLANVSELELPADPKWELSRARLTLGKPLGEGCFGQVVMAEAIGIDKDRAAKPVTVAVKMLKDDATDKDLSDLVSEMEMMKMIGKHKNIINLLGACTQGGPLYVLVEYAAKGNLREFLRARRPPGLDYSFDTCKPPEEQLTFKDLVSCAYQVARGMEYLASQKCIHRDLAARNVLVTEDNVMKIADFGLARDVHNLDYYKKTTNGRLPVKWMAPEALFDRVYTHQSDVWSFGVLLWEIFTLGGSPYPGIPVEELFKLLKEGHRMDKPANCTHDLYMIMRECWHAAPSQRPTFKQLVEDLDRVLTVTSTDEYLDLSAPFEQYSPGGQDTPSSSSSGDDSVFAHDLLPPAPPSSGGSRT
# UniProt P36888, whole entry: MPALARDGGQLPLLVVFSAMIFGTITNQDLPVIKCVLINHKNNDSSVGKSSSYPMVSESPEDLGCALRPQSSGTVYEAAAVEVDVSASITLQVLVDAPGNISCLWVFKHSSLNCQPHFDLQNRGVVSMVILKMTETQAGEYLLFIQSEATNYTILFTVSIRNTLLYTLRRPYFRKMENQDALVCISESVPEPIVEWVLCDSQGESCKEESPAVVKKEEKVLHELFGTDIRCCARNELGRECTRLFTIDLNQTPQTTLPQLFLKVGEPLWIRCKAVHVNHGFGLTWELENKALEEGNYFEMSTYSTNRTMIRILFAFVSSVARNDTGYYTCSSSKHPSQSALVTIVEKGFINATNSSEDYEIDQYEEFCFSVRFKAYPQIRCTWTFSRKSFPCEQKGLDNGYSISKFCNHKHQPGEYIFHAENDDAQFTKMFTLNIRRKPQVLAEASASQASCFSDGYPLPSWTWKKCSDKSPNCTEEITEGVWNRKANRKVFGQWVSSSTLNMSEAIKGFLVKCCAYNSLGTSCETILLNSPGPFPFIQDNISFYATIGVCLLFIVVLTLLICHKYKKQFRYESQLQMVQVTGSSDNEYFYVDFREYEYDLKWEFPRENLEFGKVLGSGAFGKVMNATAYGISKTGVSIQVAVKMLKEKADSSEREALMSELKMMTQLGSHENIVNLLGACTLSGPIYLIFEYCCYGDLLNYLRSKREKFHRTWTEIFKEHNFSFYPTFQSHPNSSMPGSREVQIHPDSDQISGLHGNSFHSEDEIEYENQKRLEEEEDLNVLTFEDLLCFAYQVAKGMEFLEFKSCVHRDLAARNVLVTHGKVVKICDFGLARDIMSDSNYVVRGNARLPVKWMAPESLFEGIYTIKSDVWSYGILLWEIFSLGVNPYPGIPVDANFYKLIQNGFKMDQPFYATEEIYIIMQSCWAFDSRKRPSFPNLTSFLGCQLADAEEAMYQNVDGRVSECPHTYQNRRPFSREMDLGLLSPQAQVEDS
# UniProt P06241, whole entry, looked up: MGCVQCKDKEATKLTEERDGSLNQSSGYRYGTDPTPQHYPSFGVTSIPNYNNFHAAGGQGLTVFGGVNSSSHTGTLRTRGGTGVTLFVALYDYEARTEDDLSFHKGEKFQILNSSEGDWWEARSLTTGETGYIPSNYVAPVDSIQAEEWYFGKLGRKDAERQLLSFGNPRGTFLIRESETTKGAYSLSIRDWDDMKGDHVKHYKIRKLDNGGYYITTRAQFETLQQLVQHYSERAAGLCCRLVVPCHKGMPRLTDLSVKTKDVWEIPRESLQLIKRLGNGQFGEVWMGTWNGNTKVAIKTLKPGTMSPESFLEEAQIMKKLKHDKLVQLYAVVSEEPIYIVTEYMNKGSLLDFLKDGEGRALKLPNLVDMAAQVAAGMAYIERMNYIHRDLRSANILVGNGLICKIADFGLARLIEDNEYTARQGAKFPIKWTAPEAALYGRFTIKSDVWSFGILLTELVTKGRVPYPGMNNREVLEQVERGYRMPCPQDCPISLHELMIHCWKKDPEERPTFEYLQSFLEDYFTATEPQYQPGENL
# UniProt P49840: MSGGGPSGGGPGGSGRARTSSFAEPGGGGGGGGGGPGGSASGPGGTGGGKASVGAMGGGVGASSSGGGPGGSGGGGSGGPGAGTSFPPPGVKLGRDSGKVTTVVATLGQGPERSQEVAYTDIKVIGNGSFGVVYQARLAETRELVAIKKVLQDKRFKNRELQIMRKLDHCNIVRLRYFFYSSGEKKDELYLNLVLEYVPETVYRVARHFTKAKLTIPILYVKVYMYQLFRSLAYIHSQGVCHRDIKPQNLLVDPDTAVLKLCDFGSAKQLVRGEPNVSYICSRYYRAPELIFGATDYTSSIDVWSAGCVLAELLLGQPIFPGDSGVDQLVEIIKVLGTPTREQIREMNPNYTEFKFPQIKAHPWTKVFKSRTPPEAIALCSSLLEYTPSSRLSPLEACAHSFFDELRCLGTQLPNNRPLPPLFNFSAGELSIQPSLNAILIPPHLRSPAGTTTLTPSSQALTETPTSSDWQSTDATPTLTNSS
# UniProt P14616: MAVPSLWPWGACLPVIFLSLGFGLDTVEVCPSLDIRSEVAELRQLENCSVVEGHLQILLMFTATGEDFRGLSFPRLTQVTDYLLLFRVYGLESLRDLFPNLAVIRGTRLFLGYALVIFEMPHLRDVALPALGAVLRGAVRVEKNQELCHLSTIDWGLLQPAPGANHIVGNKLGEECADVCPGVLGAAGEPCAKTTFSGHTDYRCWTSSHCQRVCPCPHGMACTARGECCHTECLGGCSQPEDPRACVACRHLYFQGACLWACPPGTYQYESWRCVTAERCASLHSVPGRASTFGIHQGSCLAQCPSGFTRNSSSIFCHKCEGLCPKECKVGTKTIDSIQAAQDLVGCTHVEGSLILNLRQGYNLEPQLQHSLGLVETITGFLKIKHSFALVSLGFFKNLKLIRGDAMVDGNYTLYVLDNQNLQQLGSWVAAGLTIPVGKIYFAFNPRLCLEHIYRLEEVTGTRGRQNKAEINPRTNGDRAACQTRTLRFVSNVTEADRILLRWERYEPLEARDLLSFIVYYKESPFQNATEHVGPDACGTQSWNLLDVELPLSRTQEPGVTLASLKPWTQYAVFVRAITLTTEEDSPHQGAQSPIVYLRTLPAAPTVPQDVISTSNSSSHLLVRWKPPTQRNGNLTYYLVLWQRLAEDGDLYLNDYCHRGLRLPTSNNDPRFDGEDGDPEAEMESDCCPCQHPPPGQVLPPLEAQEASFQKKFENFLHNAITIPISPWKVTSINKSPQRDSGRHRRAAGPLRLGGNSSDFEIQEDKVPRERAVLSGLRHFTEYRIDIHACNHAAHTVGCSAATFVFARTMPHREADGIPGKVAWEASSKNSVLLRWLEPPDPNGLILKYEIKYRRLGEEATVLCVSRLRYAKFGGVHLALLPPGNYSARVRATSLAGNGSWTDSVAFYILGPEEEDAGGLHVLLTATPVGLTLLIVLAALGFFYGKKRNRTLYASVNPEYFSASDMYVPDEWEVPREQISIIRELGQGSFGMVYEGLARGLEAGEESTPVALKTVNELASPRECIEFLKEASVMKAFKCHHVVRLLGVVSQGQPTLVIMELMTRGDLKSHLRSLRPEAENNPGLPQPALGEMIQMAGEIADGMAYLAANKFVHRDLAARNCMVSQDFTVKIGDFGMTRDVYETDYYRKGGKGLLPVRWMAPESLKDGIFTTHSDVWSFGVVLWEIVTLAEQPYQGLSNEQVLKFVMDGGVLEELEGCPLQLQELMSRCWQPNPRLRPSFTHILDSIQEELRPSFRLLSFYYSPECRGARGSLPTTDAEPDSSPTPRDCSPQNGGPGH
# Structures can show the parent of a compound that is named as a salt. Some of the results follow. Hit calls seldom repeat between salt and free forms of one compound.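 Kinases, fused to nanoluciferase, were expressed in K562 cells; luminescence was measured every 4 h from 2 to 18 h as percent of control (DMSO = 100%, positive control = 0%). A time point is decreased if signal falls significantly (2 sigma). Hits were called by the authors by a rule that is not shown; the count of time points alone does not decide it.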
# Assays:
# Assay in all cases: kinase-Nluc reporter destabilization hit call (1 = scored as downregulated) (binary); higher = compound decreases kinase abundance
# Details in all cases: K562; 2-18 h
# ERN1 = ERN1 (UniProt O75460)
# FGFR1 = FGFR1 (UniProt P11362)
# FGFR2 = FGFR2 (UniProt P21802)
# FGFR3 = FGFR3 (UniProt P22607)
# FGR = FGR (UniProt P09769)
# FLT3 = FLT3 (UniProt P36888)
# FYN = FYN (UniProt P06241)
# GSK3A = GSK3A (UniProt P49840)
# HER2 = HER2 (UniProt P04626)
# INSRR = INSRR (UniProt P14616)
Structure (SMILES),kinase-Nluc reporter destabilization hit call (ERN1),kinase-Nluc reporter destabilization hit call (FGFR1),kinase-Nluc reporter destabilization hit call (FGFR2),kinase-Nluc reporter destabilization hit call (FGFR3),kinase-Nluc reporter destabilization hit call (FGR),kinase-Nluc reporter destabilization hit call (FLT3),kinase-Nluc reporter destabilization hit call (FYN),kinase-Nluc reporter destabilization hit call (GSK3A),kinase-Nluc reporter destabilization hit call (HER2),kinase-Nluc reporter destabilization hit call (INSRR)
Cn1cc(-c2ccc3nnc(Sc4ccc5ncccc5c4)n3n2)cn1 (10 µM),inactive: 0,inactive: 0,inactive: 0,inactive: 0,inactive: 0,inactive: 0,inactive: 0,inactive: 0,inactive: 0,inactive: 0
Cc1ccc(OCCSc2ncccn2)c(Br)c1 [ZLN024 (hydrochloride)] (10 µM),inactive: 0,inactive: 0,inactive: 0,inactive: 0,inactive: 0,inactive: 0,inactive: 0,inactive: 0,inactive: 0,inactive: 0
CC#CC(=O)Nc1ccc2ncnc(Nc3cccc(Br)c3)c2c1 (10 µM),inactive: 0,inactive: 0,inactive: 0,inactive: 0,inactive: 0,inactive: 0,inactive: 0,inactive: 0,inactive: 0,inactive: 0
c1cncc(CN2CCC(n3ncc4c(N5CCOCC5)nc(-c5ccc6[nH]ccc6c5)nc43)CC2)c1 (10 µM),inactive: 0,active: 1,inactive: 0,inactive: 0,inactive: 0,inactive: 0,inactive: 0,inactive: 0,inactive: 0,inactive: 0
O=Nc1c(-c2c(O)[nH]c3ccc(F)cc23)[nH]c2ccccc12 [5'-Fluoroindirubinoxime] (10 µM),inactive: 0,active: 1,active: 1,inactive: 0,inactive: 0,inactive: 0,inactive: 0,inactive: 0,inactive: 0,inactive: 0
COc1cc(Nc2ncc(F)c(Nc3ccc4c(n3)N(COP(=O)(O)O)C(=O)C(C)(C)O4)n2)cc(OC)c1OC [Fostamatinib (disodium hexahydrate)] (10 µM),inactive: 0,inactive: 0,inactive: 0,inactive: 0,inactive: 0,inactive: 0,inactive: 0,inactive: 0,inactive: 0,inactive: 0
CC1(C)C(O[C@@H]2OC[C@@H](O)[C@H](O)[C@H]2O)CC[C@]23CC24CC[C@]2(C)[C@@H]([C@@]5(C)CC[C@@H](C(C)(C)O)O5)[C@H](O)C[C@@]2(C)C4C[C@@H](O[C@@H]2O[C@H](CO)[C@@H](O)[C@H](O)[C@H]2O)C13 (stereo not given in full) [Astragaloside IV] (10 µM),inactive: 0,inactive: 0,inactive: 0,inactive: 0,inactive: 0,inactive: 0,inactive: 0,inactive: 0,inactive: 0,inactive: 0
Cc1ccccc1-c1c2nccc(-c3ccc(F)cc3F)c2cc[n+]1[O-] (10 µM),inactive: 0,inactive: 0,inactive: 0,inactive: 0,inactive: 0,inactive: 0,inactive: 0,inactive: 0,inactive: 0,inactive: 0
O=C(NCCN1CCCC1)c1cc(-c2ccc(CN3CCOCC3)cc2)nc2ccc(F)cc12 (10 µM),inactive: 0,inactive: 0,inactive: 0,inactive: 0,inactive: 0,inactive: 0,inactive: 0,inactive: 0,inactive: 0,inactive: 0
O=c1cc(CN2CCOCC2)occ1OCCCCCSc1ccnc2cc(C(F)(F)F)ccc12 (10 µM),inactive: 0,inactive: 0,inactive: 0,inactive: 0,inactive: 0,inactive: 0,inactive: 0,inactive: 0,inactive: 0,inactive: 0
Cc1ccc(C(=O)Nc2ccc(Oc3cc4cnn(C)c4cc3-c3cn[nH]c3)c(F)c2)c(=O)n1-c1ccc(F)cc1 [Merestinib] (2.5 µM),inactive: 0,inactive: 0,inactive: 0,inactive: 0,inactive: 0,inactive: 0,inactive: 0,inactive: 0,inactive: 0,inactive: 0
CNC(=O)c1cc(COc2nnc(Nc3ccc(Cl)cc3)c3ccoc23)ccn1 [Telatinib] (10 µM),inactive: 0,inactive: 0,inactive: 0,inactive: 0,inactive: 0,inactive: 0,inactive: 0,inactive: 0,inactive: 0,inactive: 0
O=Nc1c(-c2c(O)[nH]c3ccc(I)cc23)[nH]c2ccccc12 [5-Iodo-indirubin-3'-monoxime] (10 µM),inactive: 0,inactive: 0,inactive: 0,inactive: 0,inactive: 0,inactive: 0,inactive: 0,inactive: 0,inactive: 0,inactive: 0
COc1ccc2c(OCc3nnc4ccc(-c5ccccc5)nn34)ccnc2c1 (2 µM),inactive: 0,inactive: 0,inactive: 0,inactive: 0,inactive: 0,inactive: 0,inactive: 0,inactive: 0,inactive: 0,inactive: 0
Cc1[nH]c(/C=C2\C(=O)Nc3ccc(F)cc32)c(C)c1C(=O)N[C@H]1CCN(C(=O)N(C)C)C1 [Vorolanib] (10 µM),inactive: 0,inactive: 0,inactive: 0,inactive: 0,inactive: 0,inactive: 0,inactive: 0,inactive: 0,inactive: 0,inactive: 0

# Random excerpt: two compounds from above.
Structure (SMILES),kinase-Nluc reporter destabilization hit call (ERN1),kinase-Nluc reporter destabilization hit call (FGFR1),kinase-Nluc reporter destabilization hit call (FGFR2),kinase-Nluc reporter destabilization hit call (FGFR3),kinase-Nluc reporter destabilization hit call (FGR),kinase-Nluc reporter destabilization hit call (FLT3),kinase-Nluc reporter destabilization hit call (FYN),kinase-Nluc reporter destabilization hit call (GSK3A),kinase-Nluc reporter destabilization hit call (HER2),kinase-Nluc reporter destabilization hit call (INSRR)
Cc1ccc(OCCSc2ncccn2)c(Br)c1 [ZLN024 (hydrochloride)] (10 µM),inactive: 0,inactive: 0,inactive: 0,inactive: 0,inactive: 0,inactive: 0,inactive: 0,inactive: 0,inactive: 0,inactive: 0
O=Nc1c(-c2c(O)[nH]c3ccc(F)cc23)[nH]c2ccccc12 [5'-Fluoroindirubinoxime] (10 µM),inactive: 0,active: 1,active: 1,inactive: 0,inactive: 0,inactive: 0,inactive: 0,inactive: 0,inactive: 0,inactive: 0
